Measurements published in PubChem BioAssay AID2685 (National Center for Advancing Translational Sciences (NCATS), 2010).
The other results are listed elsewhere or left out. The main result of the screen is listed elsewhere. These columns were measured beside it and carry no call. The list favours compounds with an active or inconclusive main result. The note in brackets gives the kind of curve behind each potency; many fits are weak.

Assay: qHTS Assay for Lipid Storage Modulators in Drosophila S3 Cells;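 on cell number change: cells counted by Cell Tracker Red CMTPX staining in the red channel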
Conditions: BODIPY lipid droplet fluorescence, 18-24 h; for cell number change: measured here: cell count max response, cells fed with added oleic acid
Method in brief: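 Laser-scanning cytometry quantifies lipid droplet accumulation (500–530 nm total intensity; droplet/cell object ratio) in oleic acid-fed (400 uM added) Drosophila S3 cells treated with a concentration series. 20 uM Triacsin C defined 100% inhibition.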

[1] = measured here: cell number channel AC50, cells fed with added oleic acid
[2] = measured here: lipid fluorescence (Fed channel) AC50, cells fed with added oleic acid

Row | SMILES | cell number change [%] | AC50 [1] | AC50 [2]
1 | Cc1ccc2cc(C)c(SCC#N)nc2c1 | 70.3 | 20.6 µM [rising, single point] | 0.651 µM [rising, partial curve]
2 | CN(CC(=O)NCc1ccco1)C(=O)C1CC(=O)N(c2ccc3c(c2)OCCO3)C1 (stereo not given) | 12 |  | 6.51 µM [falling, single point]
3 | CN1CCCN(S(=O)(=O)c2ccccc2)CC1 | -3.55 |  | 
4 | CCN(C(=O)COC(=O)c1c(C)nn(-c2ccccc2)c1Cl)c1c(N)n(Cc2ccccc2)c(=O)[nH]c1=O | 8.84 |  | 
5 | O=C(CNCC1CCCCC1)Nc1ccc(OC(F)(F)F)cc1 | 35 |  | 
6 | CCOc1ccc(-c2nnc(SCc3nc4ccccc4[nH]3)n2N)cc1 | 7.56 |  | 
7 | CSc1cc(-c2ccc(Cl)cc2)[nH]c(=O)c1C#N | -32.8 | 3.26 µM [falling, partial curve, poor fit] | 1.3 µM [falling, partial curve]
8 | COc1ccc(N2CCN(C(=O)c3ccc4[nH]c(C)c(C)c4c3)CC2)cc1 | 10.9 |  | 
9 | O=C(NCc1cccc(Cl)c1)c1ccncc1 | -6.49 |  | 29.1 µM [falling, single point]
10 | CC1(C)Cc2c(sc3nc[nH]c(=O)c23)CO1 | -14.3 |  | 18.4 µM [falling, single point]
11 | CC(=O)Cc1nsc(NC(=O)c2ccccc2)n1 | -23 |  | 
12 | C/C(=N\Nc1ccc(S(=O)(=O)N2CCCCC2)cn1)c1cccc(Br)c1 | -19.4 |  | 0.411 µM [falling, partial curve]
13 | NC(=O)N/N=C/c1cn(CC(=O)Nc2ccc(F)cc2)c2ccccc12 |  | 0.517 µM [rising, single point] | 0.731 µM [rising, partial curve, poor fit]
14 | O=C(CN1C(=O)c2ccccc2C1=O)NCc1ccc(N2CCOCC2)cc1 | 5.68 |  | 0.13 µM [falling, full curve, poor fit]
15 | CNc1nc(-c2ccc3c(c2)CCN3C(=O)c2ccc(F)cc2)cs1 | 48.1 | 29.1 µM [rising, single point] | 5.8 µM [rising, full curve]
16 | Cc1occc1C(=O)N/N=C/C(Br)=C/c1ccccc1 | 24.1 |  | 6.51 µM [falling, single point]
17 | CCOC(=O)N1CCN(C(=O)c2cc(COc3ccc4ncccc4c3)on2)CC1 | -53.2 | 16.4 µM [falling, partial curve] | 8.2 µM [falling, partial curve]
18 | CCCCN1CC(O)=C(c2nc3ccccc3[nH]2)C1=N |  |  | 7.31 µM [rising, single point]
19 | Cc1ccc(-c2cn(-c3ccc(SC(F)F)cc3)c3[n+]2CCC3)cc1 | -3.88 |  | 29.1 µM [falling, single point]
20 | Cc1cccn2c(=O)c3cc(C(=O)NCC4CCCO4)c(=N)n(C4CCCC4)c3nc12 (stereo not given) | 11.3 |  | 

Row | SMILES | cell number change [%] | AC50 [1] | AC50 [2]
21 | O=C(CN1CCN(Cc2ccc(Cl)cc2)CC1)N/N=C/c1ccccc1F | 15.2 |  | 
22 | O=C(COC(=O)c1ccc(Br)o1)Nc1ncc(Cl)cc1Cl | 21 | 0.0651 µM [rising, full curve, poor fit] | 0.058 µM [rising, full curve, poor fit]
23 | COC(=O)CCCC1=CC2=CC(=O)C(C)(OC(=O)C3CCCC3)C(=O)C2=CO1 (stereo not given) | 6.01 |  | 6.51 µM [falling, single point]
24 | CC12CCC(=O)N1C(C(=O)Nc1nc3ccc(Cl)cc3s1)CS2 (stereo not given) |  |  | 29.1 µM [rising, single point]
25 | Cc1noc(C)c1CSCC(=O)N(C)CC(=O)Nc1ccc(Cl)c(C(F)(F)F)c1 | -12.2 |  | 16.4 µM [falling, single point]
26 | COC(=O)c1cc2occc2n1CC(=O)Nc1ccc(OC)c(OC)c1 | 2.17 |  | 0.146 µM [falling, full curve]
27 | O=C(/C=C/c1ccco1)Nc1nc(-c2ccccc2)cs1 | 33.3 | 20.6 µM [rising, single point] | 
28 | O=C(NCc1ccccn1)C1COc2ccccc2O1 (stereo not given) | 38.6 | 13 µM [rising, partial curve, poor fit] | 
29 | CCC(=O)OCC(=O)C1(OC(=O)CC)[C@H](C)C[C@H]2[C@H]3[C@H]([C@@H](O)C[C@@]21C)[C@@]1(C)C=CC(=O)C=C1C[C@H]3Cl (stereo not given in full) | -1.12 |  | 2.06 µM [rising, partial curve]
30 | O=C(COC(=O)Cc1cccc(C(F)(F)F)c1)Nc1ccc2[nH]c(=O)[nH]c2c1 | -5.12 | 0.058 µM [falling, full curve, poor fit] | 0.651 µM [falling, full curve]
31 | CCOc1cc(/C=C(\C#N)C(=O)Nc2cccc(C(=O)O)c2)ccc1OCc1ccc(Br)cc1 | 26.9 |  | 1.03 µM [rising, partial curve]
32 | CSCCC(NC(N)=O)C(=O)N(C)CC(=O)Nc1cc(C)ccc1C (stereo not given) | 36.9 | 4.11 µM [rising, partial curve] | 5.8 µM [rising, full curve]
33 | C=CCn1c(=O)/c(=C\c2ccsc2)s/c1=C(/C#N)C(=O)NCCN1CCOCC1 |  |  | 1.16 µM [rising, full curve]
34 | CCOC(CCNC(=O)c1cn(-c2cccc(C)n2)cn1)OCC | 9.01 |  | 0.00461 µM [rising, full curve, poor fit]
35 | Cc1ccc(C(CNC(=O)c2ccco2)N2CCN(C)CC2)cc1 (stereo not given) | -1.65 |  | 0.291 µM [rising, full curve, poor fit]
36 | COc1ccccc1NC(=O)NC(=O)c1ccccc1 | 2.89 |  | 3.66 µM [rising, full curve]
37 | COCCNc1nc2c(c(=O)n(Cc3cccc(Br)c3)c(=O)n2C)n1C | 21.4 |  | 1.46 µM [rising, full curve, poor fit]
38 | COc1ccc(NC(=O)c2cc3c(=O)n(C)c4ccccc4c3n2C)cc1OC |  | 0.731 µM [rising, full curve] | 0.58 µM [rising, full curve]
39 | COc1cccc(/C=N/Nc2ccnc(=O)[nH]2)c1O | 13.5 | 6.51 µM [rising, single point] | 6.51 µM [rising, single point]

Seven entries already listed, arranged by SMILES length, high to low.
Row | SMILES | cell number change [%] | AC50 [1] | AC50 [2]
29 | CCC(=O)OCC(=O)C1(OC(=O)CC)[C@H](C)C[C@H]2[C@H]3[C@H]([C@@H](O)C[C@@]21C)[C@@]1(C)C=CC(=O)C=C1C[C@H]3Cl (stereo not given in full) | -1.12 |  | 2.06 µM [rising, partial curve]
23 | COC(=O)CCCC1=CC2=CC(=O)C(C)(OC(=O)C3CCCC3)C(=O)C2=CO1 (stereo not given) | 6.01 |  | 6.51 µM [falling, single point]
25 | Cc1noc(C)c1CSCC(=O)N(C)CC(=O)Nc1ccc(Cl)c(C(F)(F)F)c1 | -12.2 |  | 16.4 µM [falling, single point]
35 | Cc1ccc(C(CNC(=O)c2ccco2)N2CCN(C)CC2)cc1 (stereo not given) | -1.65 |  | 0.291 µM [rising, full curve, poor fit]
22 | O=C(COC(=O)c1ccc(Br)o1)Nc1ncc(Cl)cc1Cl | 21 | 0.0651 µM [rising, full curve, poor fit] | 0.058 µM [rising, full curve, poor fit]
27 | O=C(/C=C/c1ccco1)Nc1nc(-c2ccccc2)cs1 | 33.3 | 20.6 µM [rising, single point] | 
28 | O=C(NCc1ccccn1)C1COc2ccccc2O1 (stereo not given) | 38.6 | 13 µM [rising, partial curve, poor fit] | 
